One substance from PMC12370252 can be followed below.

The chains behind the UniProt entries cited, without tags or fusion partners. Where a name states a change or a piece, a line headed by the entry shows the natural chain unless it says otherwise. Residues count along the entry.
UniProt Q9UBI1, residues 1-124: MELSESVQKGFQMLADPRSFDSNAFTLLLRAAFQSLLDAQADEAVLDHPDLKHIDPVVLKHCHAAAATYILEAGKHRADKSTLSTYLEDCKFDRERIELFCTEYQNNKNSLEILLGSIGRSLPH
UniProt P84077: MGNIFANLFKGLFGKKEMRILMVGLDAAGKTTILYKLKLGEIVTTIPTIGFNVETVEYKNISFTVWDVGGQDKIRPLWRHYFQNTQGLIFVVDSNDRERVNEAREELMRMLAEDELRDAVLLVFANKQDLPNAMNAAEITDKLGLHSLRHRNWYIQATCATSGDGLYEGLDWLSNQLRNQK

This test addresses 3xFLAG-tagged COMMD3-NTD co-expressed in 293T cells for co-IP (human) (UniProt Q9UBI1). Nature of the test: co-IP; HA-tagged ARF1 Q71L and 3xFLAG-tagged COMMD3-NTD co-expressed in 293T cells; COMMD3-NTD immunoprecipitated with anti-FLAG antibodies, detection by immunoblotting; IP buffer 25 mM HEPES pH 7.4, 138 mM NaCl, 0.5% CHAPS.

Results are given in words; binding and its absence hold for the method and conditions named. In cells and extracts the contact can be indirect. Some results given as binding are weak or reduced against the parent protein; the word gives no strength.

As for “HA-tagged human ARF1 Q71L (from UniProt P84077 1-181)”, the binding result was “binds”.
